From PMC7411736, “Effects of Sesamin, the Major Furofuran Lignan of Sesame Oil, on the Amplitude and Gating of Voltage-Gated Na^+ and K^+ Currents” (Molecules, 2020)

Tested on: voltage-gated Na+ currents (INa) in pituitary GH3 cells
Experiment: Whole-cell patch-clamp of voltage-gated Na+ current evoked by depolarization from −80 to −10 mV
Type: cell-based, rat
Details: 0.1–100 μM
Protocol: In an initial step of the experiments, we examined the effects of SSM on the amplitude and gating of INa in response to rapid membrane depolarization. Cells were bathed in Ca^2+-free Tyrode’s solution containing 10 mM tetraethylammonium chloride (TEA) and the recording pipette was backfilled with a Cs^+-containing solution. […]
On the day of each experiment, cells were dispersed with a 1% trypsin/EDTA solution and a few drops of cell suspension were rapidly placed in a custom-built recording chamber mounted on the stage of an inverted DM-IL microscope (Leica; Major Instruments, Kaohsiung, Taiwan). […] We measured ion currents in the whole-cell model of a standard patch-clamp technique with dynamic adaptive suctioning (i.e., decremental change of suction pressure in response to a progressive increase in the electrode resistance), with the aid of an RK-400 (Bio-Logic, Claix, France) or an Axopatch-200B (Molecular Devices, Sunnyvale, CA) patch amplifier. […] During the measurements, the recorded area on the vibration-free table was shielded by using a Faraday cage (Scitech, Seoul, South Korea). […]

SMILES: c1cc2c(cc1[C@H]1OC[C@H]3[C@@H]1CO[C@@H]3c1ccc3c(c1)OCO3)OCO2 [SSM, [1S-(1α,3aα,4α,6aα)] -5,5’- (tetrahydro-1H,3H-furo [3–4-c]furan-1,4-diyl)bis-1,3-benzodioxole]
- Hill coefficient (nH) for inhibition of peak INa: 1.2
- Hill coefficient (nH) for inhibition of sustained INa: 1.2
